From ROBIN, a set of small-molecule microarray screens (doi:10.1002/anie.202211358).

Targets (5′ to 3′):
SAM-II: SAM-II riboswitch RNA pseudoknot, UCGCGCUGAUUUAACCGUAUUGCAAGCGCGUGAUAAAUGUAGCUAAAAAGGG. About 200 hits among about 21,000 compounds.
PreQ1: PreQ1 riboswitch RNA pseudoknot, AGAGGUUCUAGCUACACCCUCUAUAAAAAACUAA. From B. subtilis. About 170 hits among about 24,000 compounds.
TPP: TPP riboswitch RNA three-way junction, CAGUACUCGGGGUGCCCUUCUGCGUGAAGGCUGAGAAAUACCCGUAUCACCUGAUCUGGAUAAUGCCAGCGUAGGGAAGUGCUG. About 160 hits among about 24,000 compounds.

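Compounds were printed on reactive glass slides in duplicate spots, a dye-labelled oligonucleotide was laid over them, and the fluorescence left after washing was read. For the PreQ1, TPP and SAM-II riboswitches the laboratory earlier reported (doi:10.1038/s41467-019-09493-3) 1 µM RNA, 2 h, and a rule that included a mean Z-score above 3 (spot signal-to-noise against the whole library), a score well above that on a control array, and duplicate spots agreeing (coefficient of variation under 100). The data file gives only the calls; its cut-offs may differ, and compounds hitting several targets are kept. A missing hit is not proof of no binding, and a hit is not a measured affinity.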
Key: active = hit, inactive = tested without a hit.
The compounds are a random part of those screened.

For CC1(C)CC(=O)C2=C(C1)OC(N)=C(C#N)C21CCCC1 the calls were SAM-II: inactive; PreQ1: inactive; TPP: inactive. Calls for Cc1cc(C)n(C2CCN(c3nc(-c4ccncc4)nc4c3CNC4)C2)n1 (configuration not stated) are SAM-II: inactive; PreQ1: inactive; TPP: inactive. For COc1ccc(NC2CCCN(c3nccc(C)n3)C2)cc1OC (configuration not stated) the calls were SAM-II: inactive; PreQ1: inactive; TPP: inactive. With Cc1n[nH]cc1N the screen gave SAM-II: inactive; PreQ1: inactive; TPP: inactive. With COC(=O)C1=C(C)OC(N)=C(C(=O)OC(C)C)C12C(=O)Nc1ccccc12 (configuration not stated) the screen gave SAM-II: inactive; PreQ1: inactive; TPP: inactive. Calls for Nc1ncccc1CN1CCC(O)(c2cccc(C(F)(F)F)c2)CC1 are SAM-II: inactive; PreQ1: inactive; TPP: inactive. CNc1ccccc1C(=O)OCC(=O)c1ccc([N+](=O)[O-])cc1 was scored SAM-II: inactive; PreQ1: inactive; TPP: inactive. With Nc1nc2c(O)cccc2s1 the screen gave SAM-II: inactive; PreQ1: inactive; TPP: inactive.

With COc1cc(C(=O)NCCO)c(OC)c2c1OCO2 the screen gave SAM-II: inactive; PreQ1: inactive; TPP: inactive. For Cc1cc(NCCc2ccccc2)c2nncn2n1 the calls were SAM-II: inactive; PreQ1: inactive; TPP: inactive. Calls for C=C(C)[C@H]1Cc2c(ccc3c2O[C@@H]2COc4cc(OC)c(OC)cc4[C@@H]2C3=O)O1 are SAM-II: inactive; PreQ1: inactive; TPP: inactive. For Cc1ccccc1-c1ncc(CNCc2csc(-c3cnccn3)n2)s1 the calls were SAM-II: inactive; PreQ1: inactive; TPP: inactive.

For reference, 2 entries once more:

SMILES,SAM-II,PreQ1,TPP
Cc1ccccc1-c1ncc(CNCc2csc(-c3cnccn3)n2)s1,inactive,inactive,inactive
CNc1ccccc1C(=O)OCC(=O)c1ccc([N+](=O)[O-])cc1,inactive,inactive,inactive